Results from paper PMC7594455.
Results are given in words; binding and its absence hold for the method and conditions named. In cells and extracts the contact can be indirect. A yes stands for co-enrichment or nearness to the bait. Other partners may have been found.

T1: Sus1-TAP (yeast (endogenous in yeast cells)) (UniProt Q6WNK7)
T1 sequence: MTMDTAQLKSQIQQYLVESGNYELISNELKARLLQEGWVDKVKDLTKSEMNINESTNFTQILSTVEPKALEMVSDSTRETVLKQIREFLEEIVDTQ

T2: Ubp8-TAP (yeast (endogenous in yeast cells)) (UniProt P50102)
T2 sequence: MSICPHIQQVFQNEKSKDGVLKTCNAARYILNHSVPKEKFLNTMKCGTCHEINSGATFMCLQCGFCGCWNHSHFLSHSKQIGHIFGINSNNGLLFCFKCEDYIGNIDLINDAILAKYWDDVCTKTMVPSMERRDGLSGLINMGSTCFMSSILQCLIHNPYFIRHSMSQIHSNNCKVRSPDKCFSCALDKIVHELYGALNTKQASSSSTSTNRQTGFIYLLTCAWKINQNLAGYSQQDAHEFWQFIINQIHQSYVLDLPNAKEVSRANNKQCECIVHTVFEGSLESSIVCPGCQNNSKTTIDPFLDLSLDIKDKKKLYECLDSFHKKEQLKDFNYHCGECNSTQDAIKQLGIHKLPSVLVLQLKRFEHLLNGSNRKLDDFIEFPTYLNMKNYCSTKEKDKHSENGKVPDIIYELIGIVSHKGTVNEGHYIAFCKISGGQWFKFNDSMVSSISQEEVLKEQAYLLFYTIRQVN

B1: Ubp8 (enzyme, UniProt P50102 1-471)
chain: T2 sequence
B2: Sgf11 (protein, UniProt Q03067 1-99)
chain: MTEETITIDSISNGILNNLLTTLIQDIVARETTQQQLLKTRYPDLRSYYFDPNGSLDINGLQKQQESSQYIHCENCGRDVSANRLAAHLQRCLSRGARR
B3: Sgf73 (protein, UniProt P53165 1-657)
chain: MRSGDAEIKGIKPKVIEEYSLSQGSGPSNDSWKSLMSSAKDTPLQYDHMNRESLKKYFNPNAQLIEDPLDKPIQYRVCEKCGKPLALTAIVDHLENHCAGASGKSSTDPRDESTRETIRNGVESTGRNNNDDDNSNDNNNDDDDDDDNDDNEDDDDADDDDDNSNGANYKKNDSSFNPLKRSTSMESANTPNMDTKRSKTGTPQTFSSSIKKQKKVKQRNPTEKHLIDFNKQCGVELPEGGYCARSLTCKSHSMGAKRAVSGRSKPYDVLLADYHREHQTKIGAAAEKRAKQQELQKLQKQIQKEQKKHTQQQKQGQRSKQRNVNGGKSAKNGGKSTVHNGNNINEIGHVNLTPEEETTQVLNGVSRSFPLPLESTVLSSVRYRTKYFRMREMFASSFSVKPGYTSPGYGAIHSRVGCLDLDRTTDYKFRVRTPQPINHLTNQNLNPKQIQRLQQQRALQAQLLSQQQQQQQQQQQHHSPQAQAQASTQQPTQGMVPNHFPGGATNSSFNANVSSKQIQQQQQQQQHKSQDTGLTPLEIQSQQQKLRQQQLQQQKFEAAASYLANATKLMQESNQDSHLSGTHNNNSSKNGNNNLMTMKASISSPNTSVNSIQSPPSVNSVNGSGQGVSTGINVSGNNGRIEVGIGNSVNPYNGRIN
B4: Sus1 (protein, UniProt Q6WNK7 1-96)
chain: T1 sequence

What was measured:
[1] = molecular target: T1, Sus1-TAP (yeast (endogenous in yeast cells)); assay: affinity purification with mass spectrometry; Sus1-TAP purified by tandem affinity purification (IgG Sepharose, TEV release, calmodulin beads, EGTA elution) from extracts of wild-type cells, of cells lacking SPT7, or ADA1 and/or SPT20, and of sgf29Δ cells; LC MS/MS (MudPIT), MASCOT
[2] = molecular target: T2, Ubp8-TAP (yeast (endogenous in yeast cells)); assay: affinity purification with mass spectrometry; Ubp8-TAP purified by tandem affinity purification from extracts of spt7Δ cells; LC MS/MS, MASCOT

Row | Binder | binding [1] | binding [2]
1 | B1 | binds | 
2 | B2 | binds | binds
3 | B3 | binds | binds
4 | B4 |  | binds
